Assay results as given in US20190330365A1 (University of California, published 2019).
No constants are given. Whether binding was seen depends on the method and setting. Some results given as binding are weak or reduced against the parent protein; the word gives no strength. For some of these results: Sequences can lack the tags named with a protein.

Experiments:
[1] = target: Mouse full-length LRP6-Fc (R&D Systems) (mouse) (UniProt O88572); assay: ELISA (FIG. 15A)
[2] = target: T1, Recombinant human LRP6E3E4-Fc (human) (UniProt O75581); assay: ELISA (FIG. 15A)
T1 sequence (looked up): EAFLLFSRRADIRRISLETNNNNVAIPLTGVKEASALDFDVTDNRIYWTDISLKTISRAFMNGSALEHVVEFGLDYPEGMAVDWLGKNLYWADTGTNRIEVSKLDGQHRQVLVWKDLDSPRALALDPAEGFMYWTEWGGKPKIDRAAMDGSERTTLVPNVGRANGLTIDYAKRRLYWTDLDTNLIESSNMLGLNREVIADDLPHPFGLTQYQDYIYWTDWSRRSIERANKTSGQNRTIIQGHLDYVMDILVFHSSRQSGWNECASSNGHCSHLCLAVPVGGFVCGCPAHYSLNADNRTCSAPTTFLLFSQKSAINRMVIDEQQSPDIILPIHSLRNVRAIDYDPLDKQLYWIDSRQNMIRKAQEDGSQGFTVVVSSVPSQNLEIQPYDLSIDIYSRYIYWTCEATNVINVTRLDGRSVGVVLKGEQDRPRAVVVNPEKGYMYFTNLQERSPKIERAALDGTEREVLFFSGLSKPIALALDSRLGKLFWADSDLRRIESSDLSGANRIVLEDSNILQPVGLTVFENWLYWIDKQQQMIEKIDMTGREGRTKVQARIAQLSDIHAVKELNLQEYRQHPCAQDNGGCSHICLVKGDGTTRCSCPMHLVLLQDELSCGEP

[3] = target: Mouse full-length LRP6-Fc (R&D Systems) (mouse) (UniProt O88572); assay: ELISA, antigen coated at 5 µg/ml, biotinylated E34N19 at 5 µg/ml
[4] = target: T1, Recombinant human LRP6E3E4-Fc (human); assay: as above

binding [1]: binds
binding [2]: binds
binding [3]: binds
binding [4]: binds
B1: E34N19 (anti-LRP6E3E4 antibody, format not stated) (antibody, V domains shown)
VH: QVNLRESGGGLVQPGGSLRLSCAASGFTFSSYAMSWVRQAPGKGLEWVSAISGSGGSTYYADSVKGRFTISRDNSKNTLYLQMNSLRAEDTAVYYCAKVRGHGGNSGWVDYWGQGTLVTVSS
VL: QSVLTQDPAVSVALGQTVKITCQGDSLRTYYTSWYQQRPGQAPILVLYANTHRPSSIPDRFSGSSSGTTASLTITGAQAEDEADYYCNSRDSSGNYLFGGGTKLTVL
